Assay results published in US20110182946A1, “Formation of Nanostructured Particles of Poorly Water Soluble Drugs and Recovery by Mechanical Techniques” (BOARD OF REGENTS, THE UNIVERSITY OF TEXAS SYSTEM, priority 2008, published 2011).
At least one compound was matched to its structure with a doubt left.

Test: Contact angle of pH 6.8 phosphate buffer drop on compacted powder pellet
Format: physicochemical
Details: 10 μL drop of pH 6.8 phosphate buffer without SDS, within 15 sec.

With `CCC(C)n1ncn(-c2ccc(N3CCN(c4ccc(OCC5COC(Cn6cncn6)(c6ccc(Cl)cc6Cl)O5)cc4)CC3)cc2)c1=O` (centres unmarked) [ITZ, itraconazole] the “Average θ (contact angle)” value (listed as Pure ITZ) was 79 ° and the “Average θ (contact angle)” value (listed as pure ITZ) was 79°±13.
